# Laboratory results published in PubChem BioAssay AID256 (DTP/NCI, 2004).
# The list shows only some results of the screen, not a fair sample: it gathers tests that were run many times, whatever their T/C, doses with no T/C, and many T/C values between a quarter and a half above the control. Other doses and runs of a compound stand elsewhere. T/C is the treated group as % of the vehicle group. Some entries give survivors of the animals treated and no T/C: the source holds a T/C of zero for them, seemingly a mark for toxic or unscored doses. Some survivor counts are full or nearly so, which does not show that the dose was tolerated: the source hardly ever lists a survival T/C far under the control, and the zero likely stands for such cases as well. Survivors were counted at the toxicity check, usually on the fifth day, unless a day is given; later deaths do not show. Schedules are NCI's codes, read here as Q, the interval in days (D) or hours (H), X, the number of doses. Brackets with × count equal records among those shown. Some doses were run more than once; their values stand side by side, smallest first. Where survival is the endpoint, the PubChem record calls one and a half times the control and up active, and a quarter to a half above the control has no call in these data; cut-offs in other NCI protocols can differ. Some T/C values carry the count of animals alive at the toxicity check (mostly the fifth day); where none is given, no animal had died by that day.
# Test system: CD2F1 mice, L1210 leukemia ip, survival T/C
# Test: NCI In Vivo Anticancer Drug Screen. Data for tumor model L1210 Leukemia (intraperitoneal) in CD2F1 (CDF1) mice
# Conditions: higher T/C = longer survival
# Method in brief: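 Activity against a transplanted murine tumor was judged by comparing the compound group with a vehicle group. The outcome in the treated animals was divided by that in the controls.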
# [1] = T/C endpoint: mean survival time, dose: 5.0 mg/kg/injection, schedule: Q01DX005 (ip), vehicle: water
# [2] = T/C endpoint: mean survival time, dose: 75.0 mg/kg/injection, schedule: Q01DX001 (ip), vehicle: saline
# [3] = T/C endpoint: mean survival time, dose: 100.0 mg/kg/injection, schedule: Q04DX003 (ip), vehicle: saline with Tween-80
# [4] = T/C endpoint: mean survival time, dose: 200.0 mg/kg/injection, schedule: Q04DX003 (ip), vehicle: saline with Tween-80
# [5] = T/C endpoint: mean survival time, dose: 400.0 mg/kg/injection, schedule: Q04DX003 (ip), vehicle: saline with Tween-80
# [6] = T/C endpoint: mean survival time, dose: 300.0 mg/kg/injection, schedule: Q01DX001 (ip), vehicle: saline
# [7] = T/C endpoint: median survival time, dose: 200.0 mg/kg/injection, schedule: Q01DX005 (ip), vehicle: saline with Tween-80
structure (smiles),measurement,setting,value
CO[C@@]12[C@@H]3N[C@@H]3CN1C1=C(C(=O)C(NCCN3CCCC3)=C(C)C1=O)[C@@H]2COC(N)=O,T/C,"T/C endpoint: mean survival time, dose: 1.25 mg/kg/injection, schedule: Q01DX005 (ip), vehicle: water",134 % of control
same,T/C,[1],125 % of control
same,survivor count,[1],6 of 6
same,survivor count,"T/C endpoint: mean survival time, dose: 10.0 mg/kg/injection, schedule: Q01DX005 (ip), vehicle: water",1 of 6
same,survivor count,"T/C endpoint: mean survival time, dose: 24.0 mg/kg/injection, schedule: Q01DX001 (ip), vehicle: water",0 of 6
CCNC(=O)c1ccccc1N=NN(C)C,T/C,"T/C endpoint: mean survival time, dose: 37.5 mg/kg/injection, schedule: Q01DX009 (ip), vehicle: Klucel (hydroxypropylcellulose) (HPC)","97, 106, 112, 113 % of control"
same,T/C,"T/C endpoint: mean survival time, dose: 75.0 mg/kg/injection, schedule: Q01DX009 (ip), vehicle: Klucel (hydroxypropylcellulose) (HPC)","105 (2×), 124, 134 % of control [5 of 6 alive]"
same,T/C,"T/C endpoint: mean survival time, dose: 150.0 mg/kg/injection, schedule: Q01DX009 (ip), vehicle: Klucel (hydroxypropylcellulose) (HPC)","104, 117, 130, 137 % of control"
same,survivor count,"T/C endpoint: mean survival time, dose: 300.0 mg/kg/injection, schedule: Q01DX009 (ip), vehicle: Klucel (hydroxypropylcellulose) (HPC)","2 of 6, 3 of 6, 4 of 6"
O=c1[nH]cc(F)c(=O)n1C1OC(CO)C(O)C1O (configuration not stated),T/C,"T/C endpoint: mean survival time, dose: 1.0 mg/kg/injection, schedule: Q01DX005 (ip), vehicle: saline",143 % of control
same,T/C,"T/C endpoint: mean survival time, dose: 2.5 mg/kg/injection, schedule: Q03HX024 (ip), vehicle: saline",139 % of control
same,T/C,"T/C endpoint: mean survival time, dose: 2.5 mg/kg/injection, schedule: Q04DX003 (ip), vehicle: saline",139 % of control
same,T/C,"T/C endpoint: mean survival time, dose: 5.0 mg/kg/injection, schedule: Q01DX001 (ip), vehicle: saline",146 % of control
same,T/C,"T/C endpoint: mean survival time, dose: 5.0 mg/kg/injection, schedule: Q03HX008 (ip), vehicle: saline",140 % of control
same,T/C,"T/C endpoint: mean survival time, dose: 10.0 mg/kg/injection, schedule: Q01DX001 (ip), vehicle: saline",143 % of control
same,T/C,"T/C endpoint: mean survival time, dose: 10.0 mg/kg/injection, schedule: Q03HX008 (ip), vehicle: saline",148 % of control
same,T/C,"T/C endpoint: mean survival time, dose: 20.0 mg/kg/injection, schedule: Q03HX008 (ip), vehicle: saline",141 % of control [9 of 10 alive]
O=[N+]([O-])C(Br)(CO)CO,survivor count,"T/C endpoint: mean survival time, dose: 37.5 mg/kg/injection, schedule: Q01DX001 (ip), vehicle: saline",0 of 6
same,survivor count,[2],0 of 6
CCCCCCCCCC[Se]C#N,survivor count,"T/C endpoint: mean survival time, dose: 100.0 mg/kg/injection, schedule: Q01DX001 (ip), vehicle: saline",1 of 4
same,survivor count,"T/C endpoint: mean survival time, dose: 200.0 mg/kg/injection, schedule: Q01DX001 (ip), vehicle: saline",0 of 4
same,survivor count,"T/C endpoint: mean survival time, dose: 400.0 mg/kg/injection, schedule: Q01DX001 (ip), vehicle: saline",0 of 4
CCCCCCCCCCCCNC(=O)C[n+]1cccc(C(=O)Nc2ccccc2)c1,survivor count,"T/C endpoint: mean survival time, dose: 25.0 mg/kg/injection, schedule: Q01DX009 (ip), vehicle: saline with Tween-80",0 of 6
same,survivor count,[3],0 of 6
same,survivor count,[4],0 of 6
same,survivor count,[5],0 of 6
C[S+](C)CCC(N)C(=O)O (configuration not stated) (tested in a mixture with another compound),survivor count,"T/C endpoint: median survival time, dose: 200.0 mg/kg/injection, schedule: Q04DX002 (ip), vehicle: saline",1 of 3 (2×)
same,survivor count,"T/C endpoint: median survival time, dose: 400.0 mg/kg/injection, schedule: Q04DX002 (ip), vehicle: saline",0 of 3
CCN(CC)CC(=O)O[C@]1(CC)C(=O)OCc2c1cc1n(c2=O)Cc2cc3ccccc3nc2-1,T/C,"T/C endpoint: median survival time, dose: 2.0 mg/kg/injection, schedule: Q01DX009 (ip), vehicle: water",132 and 134 % of control
same,T/C,"T/C endpoint: median survival time, dose: 3.75 mg/kg/injection, schedule: Q04HX004 (iv), vehicle: dextrose",141 % of control
same,T/C,"T/C endpoint: median survival time, dose: 7.5 mg/kg/injection, schedule: Q04DX002 (ip), vehicle: water",125 % of control
same,T/C,"T/C endpoint: median survival time, dose: 8.0 mg/kg/injection, schedule: Q01DX009 (ip), vehicle: water",130 % of control
same,T/C,"T/C endpoint: median survival time, dose: 15.0 mg/kg/injection, schedule: Q04DX002 (ip), vehicle: water",147 % of control
CN(C)Cc1c[nH]c2ncccc12,survivor count,[3],0 of 6
same,survivor count,[4],0 of 6
same,survivor count,[5],0 of 6
O=C(O)CS(=O)(=O)CC(=O)O,survivor count,"T/C endpoint: mean survival time, dose: 100.0 mg/kg/injection, schedule: Q01DX001 (ip), vehicle: saline with Tween-80",3 of 6
same,survivor count,"T/C endpoint: mean survival time, dose: 200.0 mg/kg/injection, schedule: Q01DX001 (ip), vehicle: saline with Tween-80",3 of 6
same,survivor count,"T/C endpoint: mean survival time, dose: 400.0 mg/kg/injection, schedule: Q01DX001 (ip), vehicle: saline with Tween-80",0 of 6
N/C(=N/O)NO,T/C,"T/C endpoint: median survival time, dose: 400.0 mg/kg/injection, schedule: Q01DX005 (ip), vehicle: saline",131 [5 of 6 alive] and 142 % of control
same,survivor count,"T/C endpoint: median survival time, dose: 800.0 mg/kg/injection, schedule: Q01DX005 (ip), vehicle: saline",0 of 6
CC1=C(Br)C(=O)C(Br)=C(Br)C1=O,survivor count,"T/C endpoint: mean survival time, dose: 50.0 mg/kg/injection, schedule: Q01DX009 (ip), vehicle: saline with Tween-80",5 of 6
same,survivor count,"T/C endpoint: mean survival time, dose: 100.0 mg/kg/injection, schedule: Q01DX009 (ip), vehicle: saline with Tween-80",0 of 6
COc1cccc(CN2CCCNCC2)c1,survivor count,"T/C endpoint: mean survival time, dose: 200.0 mg/kg/injection, schedule: Q01DX005 (ip), vehicle: water",4 of 6
same,survivor count,"T/C endpoint: mean survival time, dose: 400.0 mg/kg/injection, schedule: Q01DX005 (ip), vehicle: water",0 of 6
CCCCC(O)C(=O)O (configuration not stated),survivor count,[6],3 of 6
OCC#CCOCC(O)CCl (configuration not stated),survivor count,"T/C endpoint: mean survival time, dose: 400.0 mg/kg/injection, schedule: Q01DX009 (ip), vehicle: water",0 of 6
CCCCCCCCCC(=O)N1CC[N+](C)(C)CC1,survivor count,"T/C endpoint: mean survival time, dose: 40.0 mg/kg/injection, schedule: Q01DX001 (ip), vehicle: saline",0 of 6
same,survivor count,[2],0 of 6
same,survivor count,"T/C endpoint: mean survival time, dose: 80.0 mg/kg/injection, schedule: Q01DX001 (ip), vehicle: saline",0 of 6
same,survivor count,"T/C endpoint: mean survival time, dose: 150.0 mg/kg/injection, schedule: Q01DX001 (ip), vehicle: saline",0 of 6
same,survivor count,[6],0 of 6
O=C1CCC(=O)O1,survivor count,"T/C endpoint: mean survival time, dose: 400.0 mg/kg/injection, schedule: Q01DX009 (ip), vehicle: saline with Tween-80",4 of 6
CCOC(=O)C(O)(CC)CCC(C)C (configuration not stated),survivor count,[5],0 of 6
O=NN(CCCl)C(=O)NC1CSCSC1,T/C,"T/C endpoint: mean survival time, dose: 4.0 mg/kg/injection, schedule: Q01DX001 (ip), vehicle: saline with Tween-80",135 % of control
O=C(NO)c1ccccc1,survivor count,"T/C endpoint: mean survival time, dose: 400.0 mg/kg/injection, schedule: Q01DX009 (ip), vehicle: saline sonified",3 of 6
same,survivor count,"T/C endpoint: mean survival time, dose: 400.0 mg/kg/injection, schedule: Q01DX009 (ip), vehicle: saline",2 of 6 and 4 of 10
same,survivor count,"T/C endpoint: mean survival time, dose: 800.0 mg/kg/injection, schedule: Q01DX009 (ip), vehicle: saline",8 of 10
O=C1CN(c2ccccc2)C(=O)C1C(=O)Nc1ccc(Cl)c(Cl)c1 (configuration not stated),T/C,"T/C endpoint: median survival time, dose: 72.0 mg/kg/injection, schedule: Q01DX005 (ip), vehicle: saline with Tween-80","101, 105, 106, 112 % of control"
same,T/C,"T/C endpoint: median survival time, dose: 120.0 mg/kg/injection, schedule: Q01DX005 (ip), vehicle: saline with Tween-80","91, 125, 130, 136, 151 % of control"
same,T/C,[7],142 % of control [5 of 6 alive]
same,survivor count,[7],"0 of 6, 3 of 6, 4 of 6"
same,survivor count,"T/C endpoint: median survival time, dose: 240.0 mg/kg/injection, schedule: Q01DX005 (ip), vehicle: saline with Tween-80",3 of 6
same,survivor count,"T/C endpoint: median survival time, dose: 333.0 mg/kg/injection, schedule: Q01DX005 (ip), vehicle: saline with Tween-80",0 of 6
same,survivor count,"T/C endpoint: median survival time, dose: 333.3 mg/kg/injection, schedule: Q01DX005 (ip), vehicle: saline with Tween-80",0 of 6
same,survivor count,"T/C endpoint: median survival time, dose: 480.0 mg/kg/injection, schedule: Q01DX005 (ip), vehicle: saline with Tween-80",0 of 6
O=C1CC2C3C=CC4C3CC2C14 (configuration not stated),survivor count,"T/C endpoint: mean survival time, dose: 300.0 mg/kg/injection, schedule: Q01DX001 (ip), vehicle: saline with Tween-80",1 of 6
